The values that follow come from article PMC7819943, “Rice protein-binding microarrays: a tool to detect cis-acting elements near promoter regions in rice”.

The list shows a part of the results.

In the experiment the target is T1, OsSMF1 (Oryza sativa, UniProt Q6ZLB0 1-436).
T1 sequence: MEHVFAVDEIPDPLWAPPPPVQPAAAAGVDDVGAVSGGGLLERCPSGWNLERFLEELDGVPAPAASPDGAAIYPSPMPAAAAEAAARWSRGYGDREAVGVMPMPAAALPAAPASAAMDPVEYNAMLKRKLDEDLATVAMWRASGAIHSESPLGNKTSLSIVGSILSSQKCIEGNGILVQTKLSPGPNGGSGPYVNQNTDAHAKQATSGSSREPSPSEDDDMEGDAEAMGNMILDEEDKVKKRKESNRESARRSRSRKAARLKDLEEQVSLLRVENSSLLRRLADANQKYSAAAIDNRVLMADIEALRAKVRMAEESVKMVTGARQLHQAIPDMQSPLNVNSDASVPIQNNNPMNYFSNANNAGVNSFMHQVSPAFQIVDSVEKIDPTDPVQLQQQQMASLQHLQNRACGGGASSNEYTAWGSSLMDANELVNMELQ
The experiment can be described thus: protein-binding microarray (RPBM); PBS, 2% BSA, 51.3 ng/ul salmon testes DNA, 50 uM zinc acetate, 200 nM TF, 25 C, 1 h; high values mean tight binding. To be noted: protein: recombinant; tags: N-terminal polyhistidine and DsRed monomer fusion (pET32a); chain copies: 2; label: CyDye5-dUTP incorporated in the synthesized complementary strand; 3' TTTTT single-stranded linker to array surface; dsDNA, one strand shown. Summed up:
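Polyhistidine-tagged DsRed fusions of transcription factors, joined at the N-terminus, were expressed in E. coli BL21-CodonPlus and isolated on Ni–NTA. They were incubated at 200 nM for 1 h at 25 °C on a custom Agilent array, double-stranded and BSA-blocked, in PBS with 2% BSA, salmon testes DNA and 50 µM zinc acetate. The binding signal is per-feature fluorescence intensity (arbitrary units) read on an Axon 4000B scanner after washing.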
“CAACTCAACCACGTAGAAACGTGCGGGTTTACACGGTGGCCGGAGTCACCTAGTGCAG”: the binding signal was 4280 fluorescence intensity (a.u.). Consider “ATCGGACAAATTTTAGTAAGTGACGTTAACTTCTGCATTACGGAGTCACCTAGTGCAG”, for which the binding signal is 26000 fluorescence intensity (a.u.). On to “CCATTGCATGGATGGTACATACAACAAAACACGCATGCATCGGAGTCACCTAGTGCAG”, for which the binding signal is 3260 fluorescence intensity (a.u.). As for “TACTTTATATAGATGTTCAAACATTCGATATGACATGCTGCGGAGTCACCTAGTGCAG”, the figure is 45300 fluorescence intensity (a.u.); as for “TTGTAAGATTTTGGCTCCCCAAATCTATCGTCAGCTATTTCGGAGTCACCTAGTGCAG”, 3470 fluorescence intensity (a.u.).

Consider “AAAGTCCGCTCGTGTTATTGGTAATTGAACTACTAAGCTACGGAGTCACCTAGTGCAG”, for which the binding signal is 41300 fluorescence intensity (a.u.). As for “ATACCATGAGGTTGACGTCAACAATTTCGTAGCTGTGTAACGGAGTCACCTAGTGCAG”, the figure is 5700 fluorescence intensity (a.u.).

Regarding “GACGCGTACGCACGGTGGGACGCGGTGGTGGGGTGCTGGGCGGAGTCACCTAGTGCAG”, the binding signal is 3920 fluorescence intensity (a.u.).

For the sequence “ACAACCCAAAGCGTGGCAGTGGCGAAGCCAGCTGGCACCACGGAGTCACCTAGTGCAG”, the binding signal was 3860 fluorescence intensity (a.u.). Next, “TGCTCCGCTGCTGTTCGGGCCCCACGTAGTCGTGGTCCATCGGAGTCACCTAGTGCAG”: 3960 fluorescence intensity (a.u.); “GTTTTATTGTTGAATTTTATATATTGTCACGTCCCCTTTTCGGAGTCACCTAGTGCAG”: 4350 fluorescence intensity (a.u.). Regarding “AGAAATCAACGCGGAATTGAGCTCGATTCGAGCTTATCTGCGGAGTCACCTAGTGCAG”, the binding signal was 19800 fluorescence intensity (a.u.). Next, “TGGTGCCTGGTTTCACCTTGTATGCATGCCACGTGAGATCCGGAGTCACCTAGTGCAG”: 8150 fluorescence intensity (a.u.). As for “ACTACAAGAAATTTGGCCTTCTATGACAAAATTCATATGACGGAGTCACCTAGTGCAG”, the figure is 3540 fluorescence intensity (a.u.); as for “ATTTAAGGGTTATTAGATGGATCCATGTCACTACAAATATCGGAGTCACCTAGTGCAG”, 7460 fluorescence intensity (a.u.); as for “GGGAGAGGAGGGGAGAGGAGGCTGACGTGGCCAGCTGATACGGAGTCACCTAGTGCAG”, 19200 fluorescence intensity (a.u.). As for “CCTCGCTCTCCATGGTGGTGGTGGTGGTCAGGTGGTGGGGCGGAGTCACCTAGTGCAG”, the figure is 4210 fluorescence intensity (a.u.); as for “CAAGCTCAAGATGATGACGATGACCATGTCCGACTGCTCTCGGAGTCACCTAGTGCAG”, 5560 fluorescence intensity (a.u.). For “AGACTTCGAATCCAAGTCGTTTAGCCAACCACCTTGTGGACGGAGTCACCTAGTGCAG”, the binding signal was 6440 fluorescence intensity (a.u.).

For the sequence “GTGCTATATCTTGCAGTGCATAGCCAGTACTGTCACTCAGCGGAGTCACCTAGTGCAG”, the binding signal was 4030 fluorescence intensity (a.u.). For “CTTCGAAACGCAGCGTGCGCGGCCACAACCCACGTCCGATCGGAGTCACCTAGTGCAG”, the binding signal was 3480 fluorescence intensity (a.u.). “TGTTGCCACGCTGGACCGCCACGTAAGCCCGTCAACCCGGCGGAGTCACCTAGTGCAG”: the binding signal is 35500 fluorescence intensity (a.u.). Next, “AGGGCCCAACACCCGGTCCACGGTGGACCGCGTCCACAGACGGAGTCACCTAGTGCAG”: 3830 fluorescence intensity (a.u.); “CAATGGGCGCGCGCCACATCACCTCTGCCTTCCCCTTTCCCGGAGTCACCTAGTGCAG”: 14200 fluorescence intensity (a.u.); “AGCTCGAGGCCGACGAGGAAGAGGAAGAACGTCGCCGCTGCGGAGTCACCTAGTGCAG”: 7610 fluorescence intensity (a.u.).

Consider “CCGCTCCCACGCCCTTCCTCTTGCCAGCTCCTCAAGCTCCCGGAGTCACCTAGTGCAG”, for which the binding signal was 4130 fluorescence intensity (a.u.). Regarding “GATGCATTTATCCTTATCCATCACACGCACACACGGCACACGGAGTCACCTAGTGCAG”, the binding signal was 3310 fluorescence intensity (a.u.). As for “GGGATCTGTTTTCCTACTCACGTGTATTAACTAAACACTCCGGAGTCACCTAGTGCAG”, the figure is 4900 fluorescence intensity (a.u.); as for “AGTGTAGTGGCTGGTAGGAAGAAGGAGAAGTAAGGGAGAGCGGAGTCACCTAGTGCAG”, 31600 fluorescence intensity (a.u.); as for “CGGCCCAGTTGCCAGGCTCACGGACGTGTCTGCAGGTAGGCGGAGTCACCTAGTGCAG”, 4570 fluorescence intensity (a.u.). “CTTGTACAGCTGTTTGAAGTCAGCAAATTGGAGTTATTTCCGGAGTCACCTAGTGCAG”: the binding signal was 3540 fluorescence intensity (a.u.). Next, “GGGCGCTACGGTTCACCGGCCGTCACTCAACTCCCACTTGCGGAGTCACCTAGTGCAG”: 3520 fluorescence intensity (a.u.). As for “TAGGAAATTTTCCTATTTGGCCCTTTGATTCAAAGGATTGCGGAGTCACCTAGTGCAG”, the figure is 3140 fluorescence intensity (a.u.). Next, “ACAACAGCTTTATCGTTTGCTCTTCAGCTTATTAATTGTACGGAGTCACCTAGTGCAG”: 36600 fluorescence intensity (a.u.). For the sequence “AAATGCTCGTAGAGATAAGGTGCACACGTATGTGTTTTACCGGAGTCACCTAGTGCAG”, the binding signal was 4120 fluorescence intensity (a.u.).

Regarding “AAAGAGTGATTATGAGTCATTGTTACGAAGAATCTAGCATCGGAGTCACCTAGTGCAG”, the binding signal is 3820 fluorescence intensity (a.u.). Next, “GTCAAGGAGGAGTGCAAGGAAGGTCATGGCAACATCAACACGGAGTCACCTAGTGCAG”: 3470 fluorescence intensity (a.u.); “ACAAGTTGACTCGTGACGACGGCGACTCCATCCGACCCACCGGAGTCACCTAGTGCAG”: 3670 fluorescence intensity (a.u.); “AACCGAAACATAATTCCTCGCCCCATGCAGAACATGAAAACGGAGTCACCTAGTGCAG”: 36300 fluorescence intensity (a.u.). As to “AGCAAGAACCGAGATTATCTGCATGTGACACGCCAACATTCGGAGTCACCTAGTGCAG”, the binding signal was 4280 fluorescence intensity (a.u.). In the case of “GCAACACCAATGACTCAAGGCCCAAAAGGAATTGACGACCCGGAGTCACCTAGTGCAG”, the binding signal was 3840 fluorescence intensity (a.u.).

As to “GATTCGTTTCGTAATTTGCACGTAATTTACACGTAATCTGCGGAGTCACCTAGTGCAG”, the binding signal is 6830 fluorescence intensity (a.u.).
